Reference: the supplement of paper PMC12823440, “Inhibitors supercharge kinase turnover through native proteolytic circuits” (Nature, 2025)
Counter-ions that a name gives are not always drawn. The list shows a part of the results. Hit calls seldom repeat between salt and free forms of one compound.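 In K562 cells expressing nanoluciferase-fused kinases, luminescence was recorded at 4 h intervals between 2 and 18 h, normalized as percent of control with DMSO at 100% and a positive control at 0%. A significant (2 sigma) signal drop marks a time point as decreased. The authors' rule for a hit is not shown and takes in more than the number of time points.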

Protein sequences, listed by entry. Tags and fused reporters are not part of them. Lines headed by an entry give the natural chain unless they say otherwise; changes in a name come on top.
UniProt P07949, whole entry, looked up: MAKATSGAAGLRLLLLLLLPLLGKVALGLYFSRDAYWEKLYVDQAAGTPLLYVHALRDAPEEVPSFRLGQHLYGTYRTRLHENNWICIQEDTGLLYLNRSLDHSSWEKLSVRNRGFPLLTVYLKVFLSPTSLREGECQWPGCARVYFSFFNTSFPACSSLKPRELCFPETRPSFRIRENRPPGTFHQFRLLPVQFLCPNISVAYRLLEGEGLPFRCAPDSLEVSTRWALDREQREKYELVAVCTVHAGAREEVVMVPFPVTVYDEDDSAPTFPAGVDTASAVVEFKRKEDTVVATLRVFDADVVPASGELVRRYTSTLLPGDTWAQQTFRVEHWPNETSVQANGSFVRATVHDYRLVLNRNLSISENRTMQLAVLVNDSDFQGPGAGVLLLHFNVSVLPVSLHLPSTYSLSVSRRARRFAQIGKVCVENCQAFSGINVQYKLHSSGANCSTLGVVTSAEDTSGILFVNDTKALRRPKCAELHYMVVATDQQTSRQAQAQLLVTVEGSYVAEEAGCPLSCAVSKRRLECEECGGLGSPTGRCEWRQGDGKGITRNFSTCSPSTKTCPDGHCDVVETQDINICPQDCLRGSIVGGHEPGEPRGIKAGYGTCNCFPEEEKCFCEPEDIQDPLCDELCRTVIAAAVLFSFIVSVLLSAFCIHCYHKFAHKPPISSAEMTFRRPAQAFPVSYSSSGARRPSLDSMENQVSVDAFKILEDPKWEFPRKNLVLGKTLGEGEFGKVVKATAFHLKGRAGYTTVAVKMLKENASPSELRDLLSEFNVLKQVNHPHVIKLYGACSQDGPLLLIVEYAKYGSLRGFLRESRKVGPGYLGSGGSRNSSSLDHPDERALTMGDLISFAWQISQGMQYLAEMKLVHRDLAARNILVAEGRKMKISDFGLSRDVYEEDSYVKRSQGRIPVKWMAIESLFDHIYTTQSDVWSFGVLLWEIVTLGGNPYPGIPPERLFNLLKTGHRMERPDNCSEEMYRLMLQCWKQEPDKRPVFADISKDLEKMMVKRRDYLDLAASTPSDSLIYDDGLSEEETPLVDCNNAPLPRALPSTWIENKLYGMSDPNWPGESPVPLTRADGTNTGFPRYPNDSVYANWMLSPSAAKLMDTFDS
UniProt P07949, whole entry M918T, looked up: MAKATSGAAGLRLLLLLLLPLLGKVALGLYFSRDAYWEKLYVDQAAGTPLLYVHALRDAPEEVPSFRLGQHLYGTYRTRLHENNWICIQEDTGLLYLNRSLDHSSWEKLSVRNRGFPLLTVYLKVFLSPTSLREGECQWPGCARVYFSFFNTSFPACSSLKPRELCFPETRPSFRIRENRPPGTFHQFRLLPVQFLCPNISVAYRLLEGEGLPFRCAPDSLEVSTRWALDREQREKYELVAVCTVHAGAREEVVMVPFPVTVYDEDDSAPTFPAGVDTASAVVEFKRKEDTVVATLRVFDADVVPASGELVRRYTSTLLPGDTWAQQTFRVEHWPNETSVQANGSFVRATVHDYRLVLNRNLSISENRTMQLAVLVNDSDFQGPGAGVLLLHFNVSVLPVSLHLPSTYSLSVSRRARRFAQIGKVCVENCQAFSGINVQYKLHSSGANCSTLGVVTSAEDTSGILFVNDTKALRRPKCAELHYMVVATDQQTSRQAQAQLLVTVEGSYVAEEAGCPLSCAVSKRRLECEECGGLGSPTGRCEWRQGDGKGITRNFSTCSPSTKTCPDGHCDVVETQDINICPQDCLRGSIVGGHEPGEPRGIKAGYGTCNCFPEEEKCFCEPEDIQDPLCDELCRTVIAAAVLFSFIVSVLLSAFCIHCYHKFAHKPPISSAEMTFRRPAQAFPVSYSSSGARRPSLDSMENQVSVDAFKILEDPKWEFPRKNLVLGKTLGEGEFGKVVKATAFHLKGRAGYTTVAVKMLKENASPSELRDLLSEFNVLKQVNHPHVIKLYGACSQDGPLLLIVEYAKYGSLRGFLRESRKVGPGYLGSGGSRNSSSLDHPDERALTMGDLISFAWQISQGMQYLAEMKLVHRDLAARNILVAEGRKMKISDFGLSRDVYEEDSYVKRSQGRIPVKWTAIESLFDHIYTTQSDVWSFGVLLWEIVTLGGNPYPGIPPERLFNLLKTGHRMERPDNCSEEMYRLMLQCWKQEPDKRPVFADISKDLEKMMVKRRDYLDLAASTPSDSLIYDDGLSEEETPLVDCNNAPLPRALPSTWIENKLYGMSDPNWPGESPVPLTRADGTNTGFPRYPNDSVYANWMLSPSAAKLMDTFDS
UniProt Q9BRS2: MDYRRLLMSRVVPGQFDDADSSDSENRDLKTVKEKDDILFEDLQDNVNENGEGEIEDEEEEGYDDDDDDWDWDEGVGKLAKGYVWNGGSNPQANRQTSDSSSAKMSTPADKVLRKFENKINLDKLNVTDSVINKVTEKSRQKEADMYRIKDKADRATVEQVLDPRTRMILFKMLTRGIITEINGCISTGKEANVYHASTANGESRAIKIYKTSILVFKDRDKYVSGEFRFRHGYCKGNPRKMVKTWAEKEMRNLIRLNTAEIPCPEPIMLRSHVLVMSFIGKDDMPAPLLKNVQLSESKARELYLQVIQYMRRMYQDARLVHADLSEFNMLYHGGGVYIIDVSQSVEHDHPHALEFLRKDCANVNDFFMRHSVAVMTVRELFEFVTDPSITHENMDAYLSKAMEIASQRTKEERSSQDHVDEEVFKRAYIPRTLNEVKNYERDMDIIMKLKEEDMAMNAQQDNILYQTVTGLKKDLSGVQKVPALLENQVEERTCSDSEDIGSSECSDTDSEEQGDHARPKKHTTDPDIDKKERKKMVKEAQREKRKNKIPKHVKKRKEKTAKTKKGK
UniProt Q13546: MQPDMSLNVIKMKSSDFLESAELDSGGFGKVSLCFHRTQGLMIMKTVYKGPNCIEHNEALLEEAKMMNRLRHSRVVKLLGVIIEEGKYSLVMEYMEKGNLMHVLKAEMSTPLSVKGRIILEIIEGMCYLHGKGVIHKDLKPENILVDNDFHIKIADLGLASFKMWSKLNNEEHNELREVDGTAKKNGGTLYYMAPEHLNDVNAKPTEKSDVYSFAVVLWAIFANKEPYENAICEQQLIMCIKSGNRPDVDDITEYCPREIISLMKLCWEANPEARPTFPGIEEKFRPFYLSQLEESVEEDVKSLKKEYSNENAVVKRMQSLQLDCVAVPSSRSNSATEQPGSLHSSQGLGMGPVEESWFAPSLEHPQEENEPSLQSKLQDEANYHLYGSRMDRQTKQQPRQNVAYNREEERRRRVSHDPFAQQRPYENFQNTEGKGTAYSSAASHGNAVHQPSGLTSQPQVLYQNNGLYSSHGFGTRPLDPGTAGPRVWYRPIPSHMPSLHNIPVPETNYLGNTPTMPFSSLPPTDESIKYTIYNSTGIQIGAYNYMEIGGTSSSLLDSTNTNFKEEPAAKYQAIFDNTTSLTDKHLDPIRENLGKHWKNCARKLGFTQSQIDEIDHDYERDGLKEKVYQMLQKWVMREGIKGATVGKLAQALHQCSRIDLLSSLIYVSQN
UniProt Q01974, whole entry: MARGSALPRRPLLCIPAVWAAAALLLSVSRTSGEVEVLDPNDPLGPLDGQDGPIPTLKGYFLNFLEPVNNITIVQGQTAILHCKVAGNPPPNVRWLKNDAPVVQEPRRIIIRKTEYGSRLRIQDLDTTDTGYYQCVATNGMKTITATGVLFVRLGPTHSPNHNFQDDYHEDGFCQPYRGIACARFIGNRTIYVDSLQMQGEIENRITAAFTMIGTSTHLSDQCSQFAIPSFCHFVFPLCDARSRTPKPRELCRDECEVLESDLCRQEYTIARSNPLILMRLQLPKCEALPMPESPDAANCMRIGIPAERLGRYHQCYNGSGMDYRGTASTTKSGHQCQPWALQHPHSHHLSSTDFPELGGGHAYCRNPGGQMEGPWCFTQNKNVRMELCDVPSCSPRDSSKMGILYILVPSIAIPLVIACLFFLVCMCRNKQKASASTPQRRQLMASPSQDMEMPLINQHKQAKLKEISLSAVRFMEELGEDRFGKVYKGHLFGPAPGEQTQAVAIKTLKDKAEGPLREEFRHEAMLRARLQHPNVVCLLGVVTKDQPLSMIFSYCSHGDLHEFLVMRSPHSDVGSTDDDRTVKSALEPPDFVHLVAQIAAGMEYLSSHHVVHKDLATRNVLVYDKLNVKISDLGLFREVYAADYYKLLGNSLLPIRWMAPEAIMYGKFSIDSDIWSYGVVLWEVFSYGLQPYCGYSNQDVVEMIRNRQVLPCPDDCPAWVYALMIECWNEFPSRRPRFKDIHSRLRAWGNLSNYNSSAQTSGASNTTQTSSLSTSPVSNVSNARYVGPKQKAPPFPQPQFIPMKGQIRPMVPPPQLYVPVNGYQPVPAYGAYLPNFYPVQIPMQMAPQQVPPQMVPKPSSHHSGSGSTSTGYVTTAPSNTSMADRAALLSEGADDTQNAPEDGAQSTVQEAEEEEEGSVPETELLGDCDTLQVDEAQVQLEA
UniProt Q15418, whole entry: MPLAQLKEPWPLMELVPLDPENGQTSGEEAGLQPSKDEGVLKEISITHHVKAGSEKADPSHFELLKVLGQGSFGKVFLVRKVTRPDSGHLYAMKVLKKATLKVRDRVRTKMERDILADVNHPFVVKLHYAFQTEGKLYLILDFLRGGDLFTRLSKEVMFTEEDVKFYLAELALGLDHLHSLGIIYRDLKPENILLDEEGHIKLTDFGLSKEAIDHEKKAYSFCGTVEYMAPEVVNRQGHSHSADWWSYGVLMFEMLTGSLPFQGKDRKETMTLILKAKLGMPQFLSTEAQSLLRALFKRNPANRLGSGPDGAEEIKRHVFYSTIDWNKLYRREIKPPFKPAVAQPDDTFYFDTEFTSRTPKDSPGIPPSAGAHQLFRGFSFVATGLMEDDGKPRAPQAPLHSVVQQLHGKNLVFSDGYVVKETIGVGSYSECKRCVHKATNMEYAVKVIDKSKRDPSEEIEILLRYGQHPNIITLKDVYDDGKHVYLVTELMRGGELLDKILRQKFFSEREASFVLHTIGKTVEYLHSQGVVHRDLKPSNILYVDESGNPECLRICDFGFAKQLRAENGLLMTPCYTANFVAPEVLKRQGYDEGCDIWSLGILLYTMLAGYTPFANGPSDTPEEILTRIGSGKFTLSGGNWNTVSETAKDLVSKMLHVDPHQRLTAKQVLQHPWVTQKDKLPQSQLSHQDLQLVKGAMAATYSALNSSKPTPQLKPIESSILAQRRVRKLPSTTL
UniProt Q9NYA1, whole entry: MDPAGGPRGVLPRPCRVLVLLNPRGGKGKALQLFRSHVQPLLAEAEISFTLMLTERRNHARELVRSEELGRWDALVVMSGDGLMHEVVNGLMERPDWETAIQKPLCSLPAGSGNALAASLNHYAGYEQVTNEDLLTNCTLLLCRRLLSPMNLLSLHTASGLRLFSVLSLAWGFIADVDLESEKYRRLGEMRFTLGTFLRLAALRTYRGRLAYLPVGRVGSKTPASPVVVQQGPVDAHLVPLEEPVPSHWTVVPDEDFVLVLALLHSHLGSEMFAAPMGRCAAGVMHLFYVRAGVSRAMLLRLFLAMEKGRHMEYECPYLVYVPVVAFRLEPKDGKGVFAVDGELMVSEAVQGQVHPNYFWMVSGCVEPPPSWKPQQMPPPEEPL
UniProt Q9Y6E0: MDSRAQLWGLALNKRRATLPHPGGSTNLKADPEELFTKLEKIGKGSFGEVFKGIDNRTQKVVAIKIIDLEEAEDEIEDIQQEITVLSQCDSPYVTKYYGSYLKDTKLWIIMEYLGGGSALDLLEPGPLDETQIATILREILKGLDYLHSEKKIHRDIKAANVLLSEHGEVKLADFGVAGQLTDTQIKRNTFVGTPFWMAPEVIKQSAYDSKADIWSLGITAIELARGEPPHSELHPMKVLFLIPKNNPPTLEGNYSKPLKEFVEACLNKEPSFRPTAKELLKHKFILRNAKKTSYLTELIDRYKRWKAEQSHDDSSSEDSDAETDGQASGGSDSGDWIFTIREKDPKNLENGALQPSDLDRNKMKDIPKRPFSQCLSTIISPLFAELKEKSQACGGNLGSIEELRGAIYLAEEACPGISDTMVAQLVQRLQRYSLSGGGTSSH

Legend:
Assay in all cases: kinase-Nluc reporter destabilization hit call (1 = scored as downregulated) (binary); higher = compound decreases kinase abundance
Details in all cases: K562; 2-18 h
RET = RET (UniProt P07949)
[1] = target: RET_M918T (clone: RET_mut) (UniProt P07949)
RIOK1 = RIOK1 (UniProt Q9BRS2)
RIPK1 = RIPK1 (UniProt Q13546)
RIPK2 = RIPK2 (UniProt O43353)
ROR2 = ROR2 (UniProt Q01974)
RPS6KA1 = RPS6KA1 (UniProt Q15418)
SPHK1 = SPHK1 (UniProt Q9NYA1)
SRC = SRC (UniProt P12931)
STK24 = STK24 (UniProt Q9Y6E0)

Measured: kinase-Nluc reporter destabilization hit call

O=c1ccc2cc(O)c(O)cc2o1 [Esculetin] (10 µM)
inactive: RET 0 | [1] 0 | RIOK1 = 0 | RIPK1 = 0 | RIPK2 = 0 | ROR2 = 0 | RPS6KA1 = 0 | SPHK1 = 0 | SRC 0 | STK24 = 0

COc1ccc2c(c1)C[C@H](C(=O)Nc1ccc(-c3cn[nH]c3)cc1OCCN(C)C)CO2 [Chroman 1] (10 µM)
inactive: RET 0 | [1] 0 | RIOK1 = 0 | RIPK1 = 0 | RIPK2 = 0 | ROR2 = 0 | RPS6KA1 = 0 | SPHK1 = 0 | SRC 0 | STK24 = 0

C=CC(=O)N1CCN(c2nc(OC[C@@H]3CCCN3C)nc3c2CCN(c2cccc4cccc(C)c24)C3)C[C@@H]1CC#N (2.5 µM)
inactive: RET 0 | [1] 0 | RIOK1 = 0 | RIPK1 = 0 | RIPK2 = 0 | ROR2 = 0 | RPS6KA1 = 0 | SPHK1 = 0 | SRC 0 | STK24 = 0

COc1cc(-c2cc(-c3cccc(O)c3)cnc2N)cc(OC)c1OC (2.5 µM)
inactive: RET 0 | [1] 0 | RIOK1 = 0 | RIPK1 = 0 | RIPK2 = 0 | ROR2 = 0 | RPS6KA1 = 0 | SPHK1 = 0 | SRC 0 | STK24 = 0

O=C(Nc1nccs1)C(c1cc(F)ccc1O)N1Cc2ccccc2C1=O (stereo not given) (10 µM)
inactive: RET 0 | [1] 0 | RIOK1 = 0 | RIPK1 = 0 | RIPK2 = 0 | ROR2 = 0 | RPS6KA1 = 0 | SPHK1 = 0 | SRC 0 | STK24 = 0

CNC(=O)Nc1cc(Oc2cncc(C)c2)c(-c2ccc(OCC(C)(C)O)nc2)cn1 (2.5 µM)
inactive: RET 0 | [1] 0 | RIOK1 = 0 | RIPK1 = 0 | RIPK2 = 0 | ROR2 = 0 | RPS6KA1 = 0 | SPHK1 = 0 | SRC 0 | STK24 = 0

COc1ccc(S(=O)(=O)N(CCO)c2ccccc2CN(C)CC=Cc2ccc(Cl)cc2)cc1 (2.5 µM)
inactive: RET 0 | [1] 0 | RIOK1 = 0 | RIPK1 = 0 | RIPK2 = 0 | ROR2 = 0 | RPS6KA1 = 0 | SPHK1 = 0 | SRC 0 | STK24 = 0

C=CCN(/C=C1/C(=O)O[C@H](COC)[C@@]2(C)C1=C(O)C(=O)C1=C2[C@H](OC(C)=O)C[C@]2(C)C(=O)CC[C@@H]12)CC=C [Sonolisib] (2.5 µM)
inactive: RET 0 | [1] 0 | RIOK1 = 0 | RIPK1 = 0 | RIPK2 = 0 | ROR2 = 0 | RPS6KA1 = 0 | SPHK1 = 0 | SRC 0 | STK24 = 0

COC[C@H]1Cn2cc(-c3nc(Nc4ccnn4C)ncc3C)nc2C(=O)N1Cc1ccc(F)c(F)c1 (10 µM)
inactive: RET 0 | [1] 0 | RIOK1 = 0 | RIPK1 = 0 | RIPK2 = 0 | ROR2 = 0 | RPS6KA1 = 0 | SPHK1 = 0 | SRC 0 | STK24 = 0

Cn1sc(=O)n(Cc2ccccc2)c1=O (10 µM)
inactive: RET 0 | [1] 0 | RIOK1 = 0 | RIPK1 = 0 | RIPK2 = 0 | ROR2 = 0 | RPS6KA1 = 0 | SPHK1 = 0 | SRC 0 | STK24 = 0

NC(=O)c1cccc2c(N[C@H](CN3CCC3)c3ccc(Cl)c(C(F)(F)F)c3)ncnc12 (10 µM)
inactive: RET 0 | [1] 0 | RIOK1 = 0 | RIPK1 = 0 | RIPK2 = 0 | ROR2 = 0 | RPS6KA1 = 0 | SPHK1 = 0 | SRC 0 | STK24 = 0

CCc1nc(C(N)=O)c(Nc2ccc(N3CCC(N4CCN(C)CC4)CC3)c(OC)c2)nc1NC1CCC(OC)CC1 (stereo not given) [EML4-ALK kinase inhibitor 1] (2.5 µM)
inactive: RET 0 | [1] 0 | RIOK1 = 0 | RIPK1 = 0 | RIPK2 = 0 | ROR2 = 0 | RPS6KA1 = 0 | SPHK1 = 0 | SRC 0 | STK24 = 0

C[C@]1(O)C[C@@](N)(c2ccc(-c3nc4n(c3-c3ccccc3)COc3ccncc3-4)cc2)C1 [TAS-117 (hydrochloride)] (10 µM)
inactive: RET 0 | [1] 0 | RIOK1 = 0 | RIPK1 = 0 | RIPK2 = 0 | ROR2 = 0 | RPS6KA1 = 0 | SPHK1 = 0 | SRC 0 | STK24 = 0

CCOC(=O)C1=C[C@]2(CC)CCCN3CCc4c(n1c1ccccc41)[C@@H]32 [Vinpocetine] (10 µM)
inactive: RET 0 | [1] 0 | RIOK1 = 0 | RIPK1 = 0 | RIPK2 = 0 | ROR2 = 0 | RPS6KA1 = 0 | SPHK1 = 0 | SRC 0 | STK24 = 0

CNCCOc1ccccc1C(C)(C)Nc1nccn(-c2cc(C(=O)NC3CC3)ccc2C)c1=O [p38α inhibitor 2] (10 µM)
inactive: RET 0 | [1] 0 | RIOK1 = 0 | RIPK1 = 0 | RIPK2 = 0 | ROR2 = 0 | RPS6KA1 = 0 | SPHK1 = 0 | SRC 0 | STK24 = 0

COc1cc2nccc(Oc3ccc(NC(=O)Nc4ccc(F)cc4F)c(F)c3)c2cc1OC (10 µM)
inactive: RET 0 | [1] 0 | RIOK1 = 0 | RIPK1 = 0 | RIPK2 = 0 | ROR2 = 0 | RPS6KA1 = 0 | SPHK1 = 0 | SRC 0 | STK24 = 0

CC(C)=C/C=C1\O[C@@H]2CC(C)=CC(=O)[C@@H]2[C@]1(C)O [Bisabolangelone] (10 µM)
inactive: RET 0 | [1] 0 | RIOK1 = 0 | RIPK1 = 0 | RIPK2 = 0 | ROR2 = 0 | RPS6KA1 = 0 | SPHK1 = 0 | SRC 0 | STK24 = 0

C1=N/C2=N/c3ccc(OCCN4CCCC4)c(c3)COC/C=C/COCc3cccc(c3)C(=C1)N2 [Pacritinib] (2.5 µM)
inactive: RET 0 | [1] 0 | RIOK1 = 0 | RIPK1 = 0 | RIPK2 = 0 | ROR2 = 0 | RPS6KA1 = 0 | SPHK1 = 0 | SRC 0 | STK24 = 0

As a short view, 6 of the compounds above.
Cn1sc(=O)n(Cc2ccccc2)c1=O (10 µM)
inactive: RET 0 | [1] 0 | RIOK1 = 0 | RIPK1 = 0 | RIPK2 = 0 | ROR2 = 0 | RPS6KA1 = 0 | SPHK1 = 0 | SRC 0 | STK24 = 0

NC(=O)c1cccc2c(N[C@H](CN3CCC3)c3ccc(Cl)c(C(F)(F)F)c3)ncnc12 (10 µM)
inactive: RET 0 | [1] 0 | RIOK1 = 0 | RIPK1 = 0 | RIPK2 = 0 | ROR2 = 0 | RPS6KA1 = 0 | SPHK1 = 0 | SRC 0 | STK24 = 0

CCc1nc(C(N)=O)c(Nc2ccc(N3CCC(N4CCN(C)CC4)CC3)c(OC)c2)nc1NC1CCC(OC)CC1 (stereo not given) [EML4-ALK kinase inhibitor 1] (2.5 µM)
inactive: RET 0 | [1] 0 | RIOK1 = 0 | RIPK1 = 0 | RIPK2 = 0 | ROR2 = 0 | RPS6KA1 = 0 | SPHK1 = 0 | SRC 0 | STK24 = 0

C[C@]1(O)C[C@@](N)(c2ccc(-c3nc4n(c3-c3ccccc3)COc3ccncc3-4)cc2)C1 [TAS-117 (hydrochloride)] (10 µM)
inactive: RET 0 | [1] 0 | RIOK1 = 0 | RIPK1 = 0 | RIPK2 = 0 | ROR2 = 0 | RPS6KA1 = 0 | SPHK1 = 0 | SRC 0 | STK24 = 0

CCOC(=O)C1=C[C@]2(CC)CCCN3CCc4c(n1c1ccccc41)[C@@H]32 [Vinpocetine] (10 µM)
inactive: RET 0 | [1] 0 | RIOK1 = 0 | RIPK1 = 0 | RIPK2 = 0 | ROR2 = 0 | RPS6KA1 = 0 | SPHK1 = 0 | SRC 0 | STK24 = 0

CNCCOc1ccccc1C(C)(C)Nc1nccn(-c2cc(C(=O)NC3CC3)ccc2C)c1=O [p38α inhibitor 2] (10 µM)
inactive: RET 0 | [1] 0 | RIOK1 = 0 | RIPK1 = 0 | RIPK2 = 0 | ROR2 = 0 | RPS6KA1 = 0 | SPHK1 = 0 | SRC 0 | STK24 = 0

More compounds

COc1cccc(Nc2ncnn3ccc(CN4CC[C@@H](N)[C@H](O)C4)c23)c1 (2.5 µM)
inactive: RET 0 | [1] 0 | RIOK1 = 0 | RIPK1 = 0 | RIPK2 = 0 | ROR2 = 0 | RPS6KA1 = 0 | SPHK1 = 0 | SRC 0 | STK24 = 0

Cc1cc(F)c(Nc2ncnc3cc(OCc4ccccc4)ccc23)cc1O (10 µM)
inactive: RET 0 | [1] 0 | RIOK1 = 0 | RIPK1 = 0 | RIPK2 = 0 | ROR2 = 0 | RPS6KA1 = 0 | SPHK1 = 0 | SRC 0 | STK24 = 0

C[C@H](Nc1ccc2c(c1)OCCn1cc(N3C(=O)OC[C@H]3C(F)F)nc1-2)C(N)=O (10 µM)
inactive: RET 0 | [1] 0 | RIOK1 = 0 | RIPK1 = 0 | RIPK2 = 0 | ROR2 = 0 | RPS6KA1 = 0 | SPHK1 = 0 | SRC 0 | STK24 = 0

OCCC#Cc1nc(-c2ccc(F)cc2)c(-c2ccncc2)n1CCCc1ccccc1 (2.5 µM)
inactive: RET 0 | [1] 0 | RIOK1 = 0 | RIPK1 = 0 | RIPK2 = 0 | ROR2 = 0 | RPS6KA1 = 0 | SPHK1 = 0 | SRC 0 | STK24 = 0

Cc1nc(Nc2ncc(C(=O)Nc3c(C)cccc3Cl)s2)cc(N2CCN(C(=O)CCCCCCC(=O)N[C@H](C(=O)N3C[C@H](O)C[C@H]3C(=O)NCc3ccc(-c4scnc4C)cc3)C(C)(C)C)CC2)n1 (2.5 µM)
inactive: RET 0 | [1] 0 | RIOK1 = 0 | RIPK1 = 0 | RIPK2 = 0 | ROR2 = 0 | RPS6KA1 = 0 | SPHK1 = 0 | SRC 0 | STK24 = 0

CS(=O)(=O)N1CCN(Cc2cn3cc(-c4cnc(N)nc4)nc(N4CCOCC4)c3n2)CC1 (10 µM)
inactive: RET 0 | [1] 0 | RIOK1 = 0 | RIPK1 = 0 | RIPK2 = 0 | ROR2 = 0 | RPS6KA1 = 0 | SPHK1 = 0 | SRC 0 | STK24 = 0

C[C@H]1CNC(=O)c2cnn3ccc(nc23)N[C@H](C)c2cc(F)ccc2O1 [Repotrectinib] (2.5 µM)
inactive: RET 0 | [1] 0 | RIOK1 = 0 | RIPK1 = 0 | RIPK2 = 0 | ROR2 = 0 | RPS6KA1 = 0 | SPHK1 = 0 | SRC 0 | STK24 = 0

O=C1NC(=O)C(c2ccccc2[N+](=O)[O-])=C1Nc1ccc(O)c(Cl)c1 (10 µM)
inactive: RET 0 | [1] 0 | RIOK1 = 0 | RIPK1 = 0 | RIPK2 = 0 | ROR2 = 0 | RPS6KA1 = 0 | SPHK1 = 0 | SRC 0 | STK24 = 0
